Experimental data as given in doi:10.1101/2024.07.16.603632.
These are yes or no findings as the source states them, for the method shown. Binding seen in cells or lysates may run through a third protein. Some results given as binding are weak or reduced against the parent protein; the word gives no strength. Tags and fused reporters may be left off the sequences shown.

Target: T1, full-length PTP1B^WT with an N-terminal myc-tag (UniProt P18031)
T1 sequence: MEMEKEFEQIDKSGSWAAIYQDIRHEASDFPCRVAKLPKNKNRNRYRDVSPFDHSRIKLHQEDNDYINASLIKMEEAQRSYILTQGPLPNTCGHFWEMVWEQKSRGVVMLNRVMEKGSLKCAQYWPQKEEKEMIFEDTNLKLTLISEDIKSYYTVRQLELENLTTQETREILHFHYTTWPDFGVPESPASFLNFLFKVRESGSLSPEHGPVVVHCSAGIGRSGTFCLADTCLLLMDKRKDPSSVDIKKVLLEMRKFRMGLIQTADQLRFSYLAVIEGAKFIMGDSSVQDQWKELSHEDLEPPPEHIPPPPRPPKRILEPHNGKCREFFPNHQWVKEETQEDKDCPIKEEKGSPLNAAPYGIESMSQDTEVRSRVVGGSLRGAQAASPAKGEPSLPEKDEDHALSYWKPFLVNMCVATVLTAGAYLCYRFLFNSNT
Assay: co-IP; HEK 293 cells transfected with N-terminally myc-tagged full-length PTP1B; immunoprecipitated with myc-tag-specific beads; co-immunoprecipitated protein seen by western blot; six separate transfections

binding: binds
B1: ARHGAP12 (protein, UniProt Q8IWW6 1-846)
chain: MKMADRSGKIIPGQVYIEVEYDYEYEAKDRKIVIKQGERYILVKKTNDDWWQVKPDENSKAFYVPAQYVKEVTRKALMPPVKQVAGLPNNSTKIMQSLHLQRSTENVNKLPELSSFGKPSSSVQGTGLIRDANQNFGPSYNQGQTVNLSLDLTHNNGKFNNDSHSPKVSSQNRTRSFGHFPGPEFLDVEKTSFSQEQSCDSAGEGSERIHQDSESGDELSSSSTEQIRATTPPNQGRPDSPVYANLQELKISQSALPPLPGSPAIQINGEWETHKDSSGRCYYYNRGTQERTWKPPRWTRDASISKGDFQNPGDQELLSSEENYYSTSYSQSDSQCGSPPRGWSEELDERGHTLYTSDYTNEKWLKHVDDQGRQYYYSADGSRSEWELPKYNASSQQQREIIKSRSLDRRLQEPIVLTKWRHSTIVLDTNDKESPTASKPCFPENESSPSSPKHQDTASSPKDQEKYGLLNVTKIAENGKKVRKNWLSSWAVLQGSSLLFTKTQGSSTSWFGSNQSKPEFTVDLKGATIEMASKDKSSKKNVFELKTRQGTELLIQSDNDTVINDWFKVLSSTINNQAVETDEGIEEEIPDSPGIEKHDKEKEQKDPKKLRSFKVSSIDSSEQKKTKKNLKKFLTRRPTLQAVREKGYIKDQVFGSNLANLCQRENGTVPKFVKLCIEHVEEHGLDIDGIYRVSGNLAVIQKLRFAVNHDEKLDLNDSKWEDIHVITGALKMFFRELPEPLFTFNHFNDFVNAIKQEPRQRVAAVKDLIRQLPKPNQDTMQILFRHLRRVIENGEKNRMTYQSIAIVFGPTLLKPEKETGNIAVHTVYQNQIVELILLELSSIFGR
